The source of these data is the supplement of paper PMC5407854, “Inhibitor of ppGalNAc-T3-mediated O-glycosylation blocks cancer cell invasiveness and lowers FGF23 levels” (eLife, 2017).

Over roughly 1,700 compounds, “T2 sensor activation Q score (MG/GFP ratio z-score vs DMSO controls)” has its median near 0.3; the highest 2% begin near 1.9. This is one part of the list.

The assay has as its system ppGalNAc-T2 sensor. As to the kind of experiment: T2 sensor activation Q score (MG/GFP ratio z-score vs DMSO controls) (SD units); higher = more sensor activation (inhibition of ppGalNAc-T2 glycosylation). To be noted: HEK293 sensor cells; 10 µM; 6 h. The protocol: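 Cells were treated with compound at 10 uM for 6 h, then MG/GFP ratio was read by flow cytometry (10,000 cells per well, duplicate wells). Q = (R - R_neg)/SD_neg relative to DMSO vehicle controls; the signal rises when the glycosyltransferase is inhibited.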
Regarding `COC(=O)c1nc(-c2ccc3c(n2)C(=O)C(N)=C(OC)C3=O)c(N)c(-c2ccc(OC)c(OC)c2O)c1C`, the “T2 sensor activation Q score” value was 0.4. Take `OCC1CN1C1CCCCC1` (stereo not given): the “T2 sensor activation Q score” value was 2.1. The same measure for `Cc1ccc(-n2c(O)c(C=N)c(=O)n(-c3ccc(C)cc3)c2=O)cc1`: 1.05. Turning to `O=C(O)CCCc1ccc(N(CCCl)CCCl)cc1`, the “T2 sensor activation Q score” value amounted to 0.5. The same measure for `c1ccc2nc(OCCN3CC3)ccc2c1`: 1.15.

For `Cc1ccccc1-n1c(C=Cc2ccccn2)nc2ccccc2c1=O`, the “T2 sensor activation Q score” value was -1. With `C=CCCC1(C2=CCCCC2)C(=O)NC(=O)NC1=O`, the “T2 sensor activation Q score” value is -1.5. The same measure for `COc1ccc(C2=CC(c3ccc(OC)c(OC)c3)c3c(c4ccccc4oc3=O)O2)cc1OC` (stereo not given): -0.05; for `CC(C)OC1CCCC(O)C1CC(=O)O` (stereo not given): -1.4; for `CNC(=O)Oc1c(C)[nH]ccc1=O`: 1.2.

`Cn1cnc([N+](=O)[O-])c1N=C(N)N`: the “T2 sensor activation Q score” value is 2.2. With `Cc1ccc(C=C2C(Cl)=C(Cl)C(Cl)=C2Cl)cc1` the figure was -0.5.

Regarding `O=S(=O)(F)c1ccc2nc(-c3cccc(Sc4ccccc4)c3)cc(Cl)c2c1`, the “T2 sensor activation Q score” value was -0.1. The same measure for `COc1c(OP2(=S)OCC(C)(C)CO2)cnn(C2CCCCC2)c1=O`: -1.15. With `CC(=O)OC1CCC2(C)C(CCC3C2CC(=O)C2(C)C3CC(N3CC3)C2C(C)=O)C1` (stereo not given) the figure was 0.5; with `N.N.[Cl][Pt][Cl]`, -1.1.

For the compound `O=P(Oc1ccccc1)(Oc1ccccc1)c1ccccc1`, the “T2 sensor activation Q score” value is -3.1. On to `CC1=C(O)C(=O)C=C2C1=CC=C1[C@@]2(C)CC[C@@]2(C)[C@@H]3C[C@](C)(C(=O)O)CC[C@]3(C)CC[C@]12C`, for which the “T2 sensor activation Q score” value is -2.

Consider `O=c1[nH]cc(N(CCCl)CCCl)c(=O)[nH]1`, for which the “T2 sensor activation Q score” value is -0.65.

For the compound `CN1CCc2cc3c(cc2C1)OCO3`, the “T2 sensor activation Q score” value was -0.3. The same measure for `CC1C(C)N1CC(O)Cn1ccnc1[N+](=O)[O-]` (stereo not given): 1.3. The same measure for `CC[C@@]1(O)C(=O)OCc2c1cc1n(c2=O)Cc2cc3ccccc3nc2-1`: 0.65. For `CN1CCN(c2ccc([N+](=O)[O-])c3no[n+]([O-])c23)CC1`, the “T2 sensor activation Q score” value amounted to 0.1.

As for `CN1C2CCC1[C@@H](COC(=O)c1ccccc1)[C@@H](O)C2` (stereo not given in full), the “T2 sensor activation Q score” value was -1.45. With `O=C1N(c2nncs2)CCN1[N+](=O)[O-]` the figure was 1.2. With `N=Cc1c(O)n(-c2ccccc2)c(=O)n(-c2ccccc2)c1=O` the figure was 1.45; with `CSc1nc(N)c(N=Nc2ccc([As](=O)(O)O)cc2)c(=O)[nH]1`, 0.7. As to `CN1CCCC1c1ccc(=O)[nH]c1` (stereo not given), the “T2 sensor activation Q score” value is -0.5. With `CCCC(=O)N(C)C1=Nc2ccc(Cl)cc2C(c2ccccc2)=[N+]([O-])C1` the figure was 0; with `O=C1C[C@@H]2OCC=C3C[N+]4([O-])CC[C@]56c7ccccc7N1[C@H]5[C@H]2[C@H]3C[C@@H]64` (stereo not given in full), 1.95.

With `C=C1C/C(=C/C)C(=O)O[C@@H]2CCN3CC=C(COC(=O)[C@]1(C)O)[C@H]23`, the “T2 sensor activation Q score” value came out at 0.25.

Regarding `FCCN(CCF)c1cccc(Cl)c1`, the “T2 sensor activation Q score” value was found to be 1.1. With `O=C1/C(=C\c2ccccc2)C2OCC=C3CN4CCC56c7ccccc7N1C5C2C3CC46` (stereo not given) the figure was 0.15; with `O=P(OC1=CCCCC1)(c1ccccc1)c1ccccc1`, 0.65. With `C=C1C(=O)O[C@H]2C[C@@]3(C)O[C@@H]3CC/C(C)=C/[C@@H](OC(C)=O)[C@H]12` the figure was 1.35.

For `Nc1nc(N)c2cnnn2n1`, the “T2 sensor activation Q score” value was -1.3.

For the compound `O=[N+]([O-])c1cc([As](=O)(O)c2ccc(O)c([N+](=O)[O-])c2)ccc1O`, the “T2 sensor activation Q score” value was found to be 0. As to `CN1CCN(c2nc(N)cc(=O)[nH]2)CC1`, the “T2 sensor activation Q score” value is -0.2.

Turning to `CC(C)(C)c1cc(C=C(C#N)C#N)cc(C(C)(C)C)c1O`, the “T2 sensor activation Q score” value turned out to be 0.85. `O=C1N[C@H]2[C@H](O)[C@H](O)[C@@H](O)[C@H](O)[C@@H]2c2cc3c(c(O)c21)OCO3`: the “T2 sensor activation Q score” value stood at 2.6. Regarding `c1cnc2c(c1)ccc1ncccc12`, the “T2 sensor activation Q score” value stood at 0.75. With `N#CC12CNCC1CN=N2` (stereo not given) the figure was 1.65; with `Cc1nc(C)c(C(=O)N/N=C/c2ccc(N(CCCl)CCCl)cc2)s1`, 0.65. With `O=c1cccc2n1C[C@@H]1CNC[C@H]2C1` the figure was -1; with `O=c1cccc2n1C[C@H]1C[C@@H]2CN2CCCC[C@@H]12`, -0.85; with `COC(=O)C1C(O)C(C)C(O)C(C)/C=C\C=C(C)C(=O)Nc2c(C)c(OC(C)=O)c3c(c2O)C(=O)C(C)=C2OCOC(=C23)C(C)=CC(C)(O)C(O)C(C)C1O` (stereo not given), 0.5. The same measure for `NN=C1C(Cl)=C(Cl)C(Cl)=C1Cl`: -0.35; for `CCN(CC)c1ccc(C=C2C(=O)NC(=S)NC2=O)cc1`: 0.35; for `Cn1c(CCCC(=O)O)nc2cc(N(CCCl)CCCl)ccc21`: -1.3.

For the compound `c1cncc(C2Nc3cccc4cccc(c34)N2)c1`, the “T2 sensor activation Q score” value was 1.25.

For the compound `C[C@]12CC[C@@H]3c4ccc(OC(=O)N(CCCl)CCCl)cc4CC[C@H]3[C@@H]1CC[C@@H]2OP(=O)(O)O`, the “T2 sensor activation Q score” value was -1.5. The same measure for `O=[N+]([O-])c1ccc(-c2ccccc2)c([As](=O)(O)O)c1`: -0.3; for `C[C@H]1CC[C@@]2(C)[C@@H](CC[C@@H]3[C@@H]2CC[C@]2(C)[C@@H](O)CC[C@@H]32)C1`: 0.8. Consider `CCOP(=O)(OCC)/C(C#N)=C/c1ccc(Br)cc1`, for which the “T2 sensor activation Q score” value came out at 1.45. With `O=c1cc(-c2nn[nH]n2)[nH]c(=O)[nH]1` the figure was -1.2.
